# In all, about 320,000 compounds went through this assay and about 22,000 (6.9%) were called active. The inconclusive results got no clear call from the source; some entries with a clear call stand among them for comparison. Calls come from the whole dose curve; as a rule, active = well fitted inhibition curve with a large enough effect; inconclusive = small, poorly fitted or top-dose-only effect, or another doubt; inactive = no such curve, though single readings can be large or run the other way. Where the call is inconclusive, the potency comes from a doubtful curve fit.
# Test: Primary qHTS for delayed death inhibitors of the malarial parasite plastid, 96 hour incubation
# Settings: P. falciparum luciferase reporter growth; series mostly up to 28.7 µM; activity change, negative = inhibition: at the top concentration
# Method in brief: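 P. falciparum expressing integrated firefly luciferase grown in erythrocytes (2% hematocrit, 0.05% parasitemia final) with compounds for 96 hours at 37 C, 5% CO2. Growth inhibition read as loss of luminescence after adding luciferase detection reagent.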
# % is set by controls: 0 for no effect and ±100 for the full control effect; potency is the fitted concentration of half-maximal effect.
SMILES,Potency,"activity change, negative = inhibition"
COc1ccc(C2NN=C(c3ccc(C)cc3)S2)cc1OC (stereo not given),active: 1.85 µM,
COc1ccc2c(c1)NC(c1cc(Cl)cc(Cl)c1O)c1cccn1-2 (stereo not given),"inconclusive: 18.5 µM [inhibitor, single point]",
O=C(CSc1nc(=O)n2ccccc2n1)NCc1ccccc1,,inactive: 4.74%
CCN1CCN(c2ccc(S(=O)(=O)N3CCOCC3)cc2NC(=O)c2ccc(C(F)(F)F)cc2)CC1,"inconclusive: 10.4 µM [inhibitor, partial curve, poor fit]",
O=C(N/N=C1\CCCc2c1[nH]c1ccc(Cl)cc21)c1ccncc1,,inactive: 5.3%
COC(=O)C(C)Sc1nnc(Cc2cc(=O)[nH]c(=O)[nH]2)n1-c1ccc(OC)cc1 (stereo not given),active: 0.828 µM,
O=C(Cc1ccsc1)N1CCN(S(=O)(=O)c2cccc(F)c2)CC1,,inactive: 4.53%
NCC(O)(c1ccc(Cl)cc1)c1ccc(Cl)cc1,active: 4.65 µM,
COc1cccc(NC(=O)C2CC(=O)N(C)C(=Nc3cccc(F)c3)S2)c1 (stereo not given),"inconclusive: 10.4 µM [inhibitor, partial curve, poor fit]",
CCOC(=O)c1c(NC(=O)CSc2ncn[nH]2)sc(C(C)=O)c1C,,inactive: 0.393%
COc1cccc(NC(=O)COC(=O)c2c(C)nn(-c3ccccc3)c2C)c1,,inactive: 25.4%
COc1cc(C(=O)OCC(=O)NC2CCCCC2)cc2c1OCCO2,,inactive: 18.4%
CCCN1C(=O)/C(=C/c2ccc(N3CCOCC3)cc2)NC1=S,"inconclusive: 13.1 µM [inhibitor, single point]",
Cc1[nH]c2ccc(C(=O)OCCN(C)C)cc2c1C,active: 4.65 µM,
c1ccc(-c2c[n+]3c(n2-c2ccccc2)CCC3)cc1,"inconclusive: 1.04 µM [inhibitor, full curve]",
OCC1(Cc2ccccc2)CCCN(Cc2ccn[nH]2)C1 (stereo not given),"inconclusive: 10.4 µM [inhibitor, single point]",
CN1CCCN(C(=O)COc2ccccc2)CC1,"inconclusive: 0.465 µM [inhibitor, partial curve, poor fit]",
O=C(NNC(=S)Nc1ccc(Cl)cc1Cl)C1CC1,,inactive: -26.3%
NCCOc1ccc(C2CCCCC2)cc1,"inconclusive: 13.1 µM [inhibitor, single point]",
O=C(CCC1CCCN(C(=O)c2ccc3cc[nH]c3c2)C1)NCc1ccc(F)c(F)c1 (stereo not given),"inconclusive: 10.4 µM [inhibitor, single point]",
COc1ccc(C(=O)NCc2nnc(SCC(=O)N3CCCCC3)o2)cc1OC,active: 3.29 µM,
COc1ccc(CCN2C(=O)N(c3ccc(OC)cc3)C(=O)C2CC(=O)Nc2ccc(OC)cc2)cc1 (stereo not given),"inconclusive: 10.4 µM [inhibitor, single point]",
CCN(CC)C(=O)CSc1nc2c(sc(=S)n2-c2ccccc2)c(=O)n1-c1ccc(OC)cc1OC,"inconclusive: 0.0037 µM [inhibitor, full curve]",
O=C(/C=C/c1ccccc1Cl)N(Cc1cccs1)C1CCS(=O)(=O)C1 (stereo not given),"inconclusive: 11.7 µM [inhibitor, partial curve, poor fit]",

SMILES,Potency,"activity change, negative = inhibition"
CCCc1nc(SCC(=O)N2CCN(c3ccccc3)CC2)c2c(=O)n(C)c(=O)n(C)c2n1,"inconclusive: 1.31 µM [inhibitor, full curve]",
O=C(NCc1cc(C(F)(F)F)cc(C(F)(F)F)c1)C1CC(c2ccccc2C(F)(F)F)=NO1 (stereo not given),"inconclusive: 10.4 µM [inhibitor, single point]",
Cc1cccc(OCCn2c(-c3ccco3)nc3ccccc32)c1,"inconclusive: 10.4 µM [inhibitor, partial curve, poor fit]",
COc1cccc(OCC(=O)Nc2cc(NC(=O)COc3cccc(OC)c3)cc(C(=O)O)c2)c1,"inconclusive: 18.5 µM [inhibitor, single point]",
COC(=O)CCCNC(=O)CC1C(=O)NCCN1Cc1ccoc1 (stereo not given),active: 13.1 µM,
Cc1nn(CCCC(=O)Nc2sc3c(c2C#N)CCC3)c(C)c1[N+](=O)[O-],"inconclusive: 0.0738 µM [inhibitor, full curve, poor fit]",
CCOC(=O)N1CCN(S(=O)(=O)c2ccc(C(=O)N(CCCN(C)C)c3nc4c(F)cc(F)cc4s3)cc2)CC1,,inactive: 4.07%
COc1ccccc1NC(=O)CSc1nnc(Cn2c(=O)sc3ccccc32)n1C,"inconclusive: 14.7 µM [inhibitor, single point]",
COc1cccc(CNC(=S)NC2CC2)c1,"inconclusive: 4.15 µM [inhibitor, single point]",
COC(=O)c1ccc(NC(=O)c2ccc3c(c2)C(=O)N(C)C3=O)cc1,"inconclusive: 11.7 µM [inhibitor, single point]",
CCOC(=O)N1CCN(C(=O)CSc2ccc(-c3ccccc3OC)nn2)CC1,active: 4.65 µM,
CCN1CCN(c2ccc(S(=O)(=O)N3CCCCC3)cc2NC(=O)/C=C/c2cc(OC)ccc2OC)CC1,"inconclusive: 3.7 µM [inhibitor, partial curve]",
COc1cccc(/C=N/n2c(C)nc3ccccc3c2=O)c1O,,inactive: 36.3%
Cc1ccc2nc(SCC(=O)Nc3cccnc3Cl)[nH]c2c1,,inactive: -19.9%
Cc1ccc(C(C)NC(=O)C2CCCC2)cc1C (stereo not given),"inconclusive: 18.5 µM [inhibitor, partial curve, poor fit]",
COc1cc(CCN2C(=O)c3cccc4cccc(c34)C2=O)c(S(=O)(=O)NCCO)cc1OC,"inconclusive: 16.5 µM [inhibitor, single point]",
CCCCC(=O)N/N=C/c1ccc(Sc2cccc3cccnc23)o1,active: 4.15 µM,
Cc1nc(SCCOc2ccccc2)[nH]c(=O)c1Cc1ccccc1,,inactive: 170%
CCCC(c1nnnn1CC1CCCO1)N1CCN(c2ccccc2)CC1 (stereo not given),"inconclusive: 10.4 µM [inhibitor, single point]",
O=C(N/N=C/c1ccccn1)c1cc([N+](=O)[O-])cc([N+](=O)[O-])c1,,inactive: 23.4%
O=C(CSc1nnnn1-c1ccc(Cl)cc1)NC(=O)Nc1ccc2c(c1)OCCO2,,inactive: 116%
Cc1ccc(/C=C2\SC(=S)N(CCCC(=O)Nc3nccs3)C2=O)cc1,"inconclusive: 10.4 µM [inhibitor, single point]",
CCOc1ccc(-n2c(=O)c3c4c(sc3n(CC(=O)NCC3CCCO3)c2=O)CCCC4)cc1 (stereo not given),"inconclusive: 13.1 µM [inhibitor, single point]",
CN1CCN(NC(=S)Nc2ccc(Oc3ccccc3)cc2)CC1,"inconclusive: 0.928 µM [inhibitor, single point]",

SMILES,Potency,"activity change, negative = inhibition"
CCOc1ccc(CCNC(=O)Cn2nc(C)c3c(C)n(-c4ccccc4)nc3c2=O)cc1,"inconclusive: 11.7 µM [inhibitor, single point]",
O=C(Nc1nc(-c2ccccn2)cs1)c1ccc(S(=O)(=O)N2CCCCC2)cc1,active: 2.33 µM,
Cc1onc(-c2ccc(Cl)cc2Cl)c1-c1csc(COc2ccccc2)n1,"inconclusive: 18.5 µM [inhibitor, single point]",
O=C(CCl)c1ccc(Oc2ccc(C(=O)CCl)cc2)cc1,,inactive: -8.07%
Cc1ccc(C(=O)Nc2nnc(-c3ccco3)o2)cc1,"inconclusive: 16.5 µM [inhibitor, single point]",
O=C(Cn1nnc(-c2ccccc2)n1)NCc1ccc2c(c1)OCO2,"inconclusive: 11.7 µM [inhibitor, partial curve, poor fit]",
CCCCCOc1ccc(OC(=O)c2ccncc2)cc1,,inactive: 92.8%
O=C(NC1CCCC1)C(c1ccncc1)N(C(=O)c1ccco1)c1ccc(Cl)cc1 (stereo not given),"inconclusive: 13.1 µM [inhibitor, single point]",
O=C1C(Cc2ccccc2)Nc2ncnc(N3CCN(c4ccccc4)CC3)c2N1Cc1ccc(Cl)cc1 (stereo not given),active: 9.28 µM,
CN(C(=O)c1ccccc1-c1ccccc1C(=O)O)c1ccccc1,"inconclusive: 0.0828 µM [inhibitor, full curve, poor fit]",
COc1ccccc1Nc1ccc(NS(=O)(=O)c2ccc(C(C)=O)cc2)cc1,"inconclusive: 11.7 µM [inhibitor, partial curve]",
COc1ccc(C(=O)C2CCCN(Cc3c(O)cccc3OC)C2)cc1OC (stereo not given),"inconclusive: 11.7 µM [inhibitor, partial curve]",
Cc1cnc([N+](=O)[O-])n1CCOC(=O)NC(=O)c1ccccc1,"inconclusive: 18.5 µM [inhibitor, single point]",
CCCn1c(N)c(C(=O)CSc2nnc(-c3cccnc3)n2-c2ccc(C)cc2C)c(=O)[nH]c1=O,"inconclusive: 0.117 µM [inhibitor, partial curve, poor fit]",
CN1CCC(N(C)S(=O)(=O)c2ccc(NC(=O)COc3ccc(F)cc3)cc2)CC1,"inconclusive: 10.4 µM [inhibitor, partial curve]",
CCn1c(Oc2ccccc2C)nc2c1c(=O)n(C)c(=O)n2C,,inactive: -4.08%
COCCN1C(=O)N[C@@H](c2ccc(Br)cc2)C(C(=O)OC)=C1C,"inconclusive: 18.5 µM [inhibitor, single point]",
C[C@H](OC(=O)N1CCN(C(c2ccccc2)c2ccccc2)CC1)[C@@H]1O[C@@]2(C)CCC[C@H]1O2,active: 4.65 µM,
Cc1ccc(NC(=O)c2ccc(CN3CCc4ccccc4C3)cc2)cc1,,inactive: 7.16%
CCOc1cc(NC(=S)NCC2CCCO2)c(OCC)cc1NC(=O)c1ccccc1 (stereo not given),"inconclusive: 0.586 µM [inhibitor, partial curve]",
COc1ccc(CCNC(=O)C/C(C)=N/NC(=O)C2CCCCC2)cc1OC,active: 8.28 µM,
COc1ccc(C2C(C(=O)OC3CCCCC3)=C(C)Nc3nnnn32)c(OC)c1OC (stereo not given),,inactive: 5.35%

# Random excerpt: five records from the list.
SMILES,Potency,"activity change, negative = inhibition"
O=C(CCl)c1ccc(Oc2ccc(C(=O)CCl)cc2)cc1,,inactive: -8.07%
CCOC(=O)N1CCN(S(=O)(=O)c2ccc(C(=O)N(CCCN(C)C)c3nc4c(F)cc(F)cc4s3)cc2)CC1,,inactive: 4.07%
Cc1cccc(OCCn2c(-c3ccco3)nc3ccccc32)c1,"inconclusive: 10.4 µM [inhibitor, partial curve, poor fit]",
CCCC(c1nnnn1CC1CCCO1)N1CCN(c2ccccc2)CC1 (stereo not given),"inconclusive: 10.4 µM [inhibitor, single point]",
CCCN1C(=O)/C(=C/c2ccc(N3CCOCC3)cc2)NC1=S,"inconclusive: 13.1 µM [inhibitor, single point]",

# Source: PubChem BioAssay AID504834 (National Center for Advancing Translational Sciences (NCATS), 2011)
